In paper PMC7819943, “Rice protein-binding microarrays: a tool to detect cis-acting elements near promoter regions in rice” one finds binding signal data, which are given here for 42 sequences.

Amino acid sequences for entries named in this document (tags omitted).
UniProt Q0JBA9, entry or part of it: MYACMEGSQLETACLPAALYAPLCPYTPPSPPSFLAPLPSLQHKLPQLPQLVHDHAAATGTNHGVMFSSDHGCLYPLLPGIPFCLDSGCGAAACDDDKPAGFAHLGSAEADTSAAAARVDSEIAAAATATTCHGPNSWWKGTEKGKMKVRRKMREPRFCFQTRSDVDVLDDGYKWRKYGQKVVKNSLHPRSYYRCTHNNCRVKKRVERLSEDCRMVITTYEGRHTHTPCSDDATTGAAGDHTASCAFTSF

The list shows a part of the results.

The assay has as its target OsWRKY34 (Oryza sativa, UniProt Q0JBA9 1-250). Put plainly: protein-binding microarray (RPBM); PBS, 2% BSA, 51.3 ng/ul salmon testes DNA, 50 uM zinc acetate, 200 nM TF, 25 C, 1 h; high values mean tight binding. The note with it: protein: recombinant; tags: N-terminal polyhistidine and DsRed monomer fusion (pET32a); label: CyDye5-dUTP incorporated in the synthesized complementary strand; 3' TTTTT single-stranded linker to array surface; dsDNA, one strand shown. Put shortly:
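A custom Agilent array was converted to double-stranded form by primer extension with Cy5-dUTP and blocked with 2% BSA. Protein at 200 nM in PBS with 2% BSA, salmon testes DNA and 50 µM zinc acetate was applied for 1 h at 25 °C, followed by washing. The proteins were polyhistidine–DsRed N-terminal fusions of transcription factors, expressed in E. coli BL21-CodonPlus and Ni–NTA-purified. The binding signal is per-feature fluorescence intensity (arbitrary units) from an Axon 4000B scanner.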
For “CCCTTATTCGTTTGTTTTCCATAGTACCTACATTTTTTCACGGAGTCACCTAGTGCAG”, the binding signal was 12200 fluorescence intensity (a.u.). For the sequence “CCGGCGACCTCCCCACCCACCGCCCGGCCCGCCCAGCCTGCGGAGTCACCTAGTGCAG”, the binding signal was 8030 fluorescence intensity (a.u.). Take “ATCTCCGCCCGGTCGCGCCGCCGGTGGGGTGGGGAATTCGCGGAGTCACCTAGTGCAG”: the binding signal is 14900 fluorescence intensity (a.u.).

Turning to “TATGTCACATTTTCACTTTCTGTACTATGTAATACTATATCGGAGTCACCTAGTGCAG”, the binding signal was 10500 fluorescence intensity (a.u.). For “GAGGACCTCTCTACTCTTCACCTCGCCGGTCAAGCGATTCCGGAGTCACCTAGTGCAG”, the binding signal is 10500 fluorescence intensity (a.u.). As to “AATTCCAGCCGAATTCTCCATGTCTTCTATTTCACCATACCGGAGTCACCTAGTGCAG”, the binding signal was 9560 fluorescence intensity (a.u.). For “AACTTGCATGCTACCTTGAAACGATCAGAGTCCTAATTGCCGGAGTCACCTAGTGCAG”, the binding signal was 8150 fluorescence intensity (a.u.).

On to “TACTTAATCTGTTGTTATCCAGCTATCTTACACGTTATTTCGGAGTCACCTAGTGCAG”, for which the binding signal was 9510 fluorescence intensity (a.u.).

Regarding “AGGAGCGCATATTACTTTTGAATTTGAAAGTTTTTTTTCCCGGAGTCACCTAGTGCAG”, the binding signal was 8500 fluorescence intensity (a.u.). “GTACTCTCCATCCGCCGCCGCCGCTTGGTACTAGATTTGTCGGAGTCACCTAGTGCAG”: the binding signal was 12700 fluorescence intensity (a.u.). For “CCAAATCTTACCCTTTCACTAGCTCTCTCTGTTCTCATCCCGGAGTCACCTAGTGCAG” the value was 11800 fluorescence intensity (a.u.); for “TGTTGGGTTGGGTTGGGTTGGGTTGGGTCCGTCCGATGAACGGAGTCACCTAGTGCAG”, 24200 fluorescence intensity (a.u.). As to “ACTTTATCCTCTCCCACGTCGCCAGCGTTCCCTTGTTGCTCGGAGTCACCTAGTGCAG”, the binding signal was 11000 fluorescence intensity (a.u.). For “CCGACTGCTCAATCACCACCGGTCTGACCGGCTACCAGAGCGGAGTCACCTAGTGCAG” the value was 17200 fluorescence intensity (a.u.); for “GTGAAAATATGTCCATTTCACCAACCTTTTGTCCCAAATCCGGAGTCACCTAGTGCAG”, 9320 fluorescence intensity (a.u.). Turning to “ATTCTGCAACATTGACTAGACTCTTCTATATTGTTAATCTCGGAGTCACCTAGTGCAG”, the binding signal is 8290 fluorescence intensity (a.u.). “TTGAGCTAGTACTAACATTTTTGTGTCGCGTTGGTTTAGTCGGAGTCACCTAGTGCAG”: the binding signal was 10900 fluorescence intensity (a.u.). For “GTCACATTATATACGTATTTCTTCTCTTGGTACCATTTGACGGAGTCACCTAGTGCAG”, the binding signal was 12300 fluorescence intensity (a.u.). In the case of “AGACACCAACTCCACCGCATCCTACCAAGCCGCTGCCATGCGGAGTCACCTAGTGCAG”, the binding signal was 8190 fluorescence intensity (a.u.). On to “CTGCCGTCTCGCTTCGCCGACCTCCTCCCCACCAGCCGGCCGGAGTCACCTAGTGCAG”, for which the binding signal was 8900 fluorescence intensity (a.u.).

“TCCTCACCCTCTCGCCACGTCTGCTTCGATCCCTTCTCCTCGGAGTCACCTAGTGCAG”: the binding signal was 9160 fluorescence intensity (a.u.).

With “GTGTCGCCAGTGATTGCAGTTTCAGTTCGAAATTTCTCTACGGAGTCACCTAGTGCAG”, the binding signal was 9610 fluorescence intensity (a.u.). On to “CCGCATCCTTCTTGGACTTCTGTTTTGTTGTTGGCCATGGCGGAGTCACCTAGTGCAG”, for which the binding signal is 11100 fluorescence intensity (a.u.). Turning to “GGGGATGGGGTGAATTTAAATCTCCCTGCAAAACCATTTTCGGAGTCACCTAGTGCAG”, the binding signal was 9550 fluorescence intensity (a.u.). “ACCTATCTTTCTCTATTTTTTATTTTTTTAGCGAAACACACGGAGTCACCTAGTGCAG”: the binding signal was 9780 fluorescence intensity (a.u.). For “GCAGTACCATTAGCCCACCCACCTACGGCCGCCGGCGCTGCGGAGTCACCTAGTGCAG”, the binding signal was 8180 fluorescence intensity (a.u.). On to “CCTTTCGCCGTGTTCGGTTGTTGCTGGAGCGGATTTGATTCGGAGTCACCTAGTGCAG”, for which the binding signal is 8650 fluorescence intensity (a.u.). For “CATCTCGCATTTAATTTCTCCACATATTTTTTCTTAATTACGGAGTCACCTAGTGCAG” the value was 9220 fluorescence intensity (a.u.). Regarding “GTGAGGGCTGGGCTACCATGGGTATGGGTATGGGTATGGGCGGAGTCACCTAGTGCAG”, the binding signal was 11100 fluorescence intensity (a.u.). “CCCACGTTCCTTTAACTTTGCATCAGAGGAGCTCCGTCCACGGAGTCACCTAGTGCAG”: the binding signal was 9240 fluorescence intensity (a.u.). Take “CCACCACTCCGTCGCCGTGGTCGCGCCCGCGCCTACTCCGCGGAGTCACCTAGTGCAG”: the binding signal was 8830 fluorescence intensity (a.u.). Take “CTCATGTGACATGCCACATAGGAGTTGACTCATTTTCTTTCGGAGTCACCTAGTGCAG”: the binding signal is 9800 fluorescence intensity (a.u.).

Consider “GACCTCATCCGGCGCCAGATCGCCCCGCCGCCAAACCAATCGGAGTCACCTAGTGCAG”, for which the binding signal was 8360 fluorescence intensity (a.u.). Regarding “TTTCATTGTTTCCGCAGACACGCTTTTCAAACTACTAAACCGGAGTCACCTAGTGCAG”, the binding signal was 8080 fluorescence intensity (a.u.). As to “ACCACTGCCCATCGCCGTCGCTCTTGTCGCCATCGCATCCCGGAGTCACCTAGTGCAG”, the binding signal is 11300 fluorescence intensity (a.u.). Regarding “TCAGCCATCTCTCCACAGCCTAATCCTTATTTTATTCCTACGGAGTCACCTAGTGCAG”, the binding signal was 8720 fluorescence intensity (a.u.). On to “TCATCGGCATCTTCTTACGCCACCGTCGCCGCATCCACATCGGAGTCACCTAGTGCAG”, for which the binding signal is 13700 fluorescence intensity (a.u.). For “TGGCTCAAGCACACTACATATATATCCTTGTTTTTTCAACCGGAGTCACCTAGTGCAG” the value was 8260 fluorescence intensity (a.u.); for “GAGAGTTTTTACATTTAACCCATTTTCTACTTTTTATTTCCGGAGTCACCTAGTGCAG”, 9880 fluorescence intensity (a.u.); for “TTCTTTTACCATACTTCGATGGAAATTGTCTCGCTATTTCCGGAGTCACCTAGTGCAG”, 8960 fluorescence intensity (a.u.). “TCAGTATTATCATATATCGGCACCAATGCAAGTTGCTTCCCGGAGTCACCTAGTGCAG”: the binding signal was 8310 fluorescence intensity (a.u.).

With “CATGATTAATACTTTATGCGTGACTTACCTTTTTATTTTTCGGAGTCACCTAGTGCAG”, the binding signal is 12300 fluorescence intensity (a.u.).
